# Several values for one entry are separate records, joined by “and”; a condition that tells them apart may be missing. Where a call stands in place of a potency, no number is given. Identical values can stand only once. Inconclusive means that the source gave no clear call. Such entries were picked first, then a sample of the others. For some of these results: Where the call is inconclusive, the potency comes from a doubtful curve fit. For some of these results: “Side channel” marks fits to a control or component signal instead of the main read-out. Activity calls are given as the source filed them. Unless noted, calls follow the shape of the dose curve; as a rule, active = well fitted curve in the direction sought with a large enough effect; inconclusive = small, poorly fitted or top-dose-only effect, or another doubt; inactive = no such curve, though single readings can be large; an effect the other way counts as inactive or inconclusive.
# By UniProt entry, the sequences of proteins in these tests, tags left out. Where a name states a change or a piece, a line headed by the entry shows the natural chain unless it says otherwise.
# UniProt Q9HC16: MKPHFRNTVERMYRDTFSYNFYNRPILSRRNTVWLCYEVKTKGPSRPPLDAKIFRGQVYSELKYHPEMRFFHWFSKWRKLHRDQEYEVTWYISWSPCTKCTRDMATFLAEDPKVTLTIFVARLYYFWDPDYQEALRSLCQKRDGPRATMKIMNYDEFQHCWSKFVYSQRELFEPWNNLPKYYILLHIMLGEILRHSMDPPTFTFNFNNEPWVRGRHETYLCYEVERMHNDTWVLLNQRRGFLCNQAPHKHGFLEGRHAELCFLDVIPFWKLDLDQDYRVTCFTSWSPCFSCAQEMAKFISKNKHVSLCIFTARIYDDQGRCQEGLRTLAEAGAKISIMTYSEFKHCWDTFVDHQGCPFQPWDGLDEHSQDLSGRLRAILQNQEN
# UniProt P03372, whole entry, looked up: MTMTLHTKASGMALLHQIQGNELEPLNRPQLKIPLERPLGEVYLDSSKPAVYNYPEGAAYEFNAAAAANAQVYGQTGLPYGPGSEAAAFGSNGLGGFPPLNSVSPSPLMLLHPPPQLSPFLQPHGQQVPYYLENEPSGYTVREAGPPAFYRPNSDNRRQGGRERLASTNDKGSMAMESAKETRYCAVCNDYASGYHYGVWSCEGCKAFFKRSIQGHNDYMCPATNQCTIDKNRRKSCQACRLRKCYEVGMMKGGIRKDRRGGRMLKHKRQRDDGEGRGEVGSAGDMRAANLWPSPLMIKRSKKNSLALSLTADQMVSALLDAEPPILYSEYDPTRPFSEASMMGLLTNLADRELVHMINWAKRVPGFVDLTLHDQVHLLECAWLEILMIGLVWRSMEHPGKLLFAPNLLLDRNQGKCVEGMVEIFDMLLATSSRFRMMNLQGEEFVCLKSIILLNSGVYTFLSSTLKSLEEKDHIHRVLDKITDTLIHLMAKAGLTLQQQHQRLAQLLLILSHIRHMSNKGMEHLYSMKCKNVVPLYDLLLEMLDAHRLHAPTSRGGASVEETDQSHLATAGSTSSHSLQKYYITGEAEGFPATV
# UniProt Q96RI1: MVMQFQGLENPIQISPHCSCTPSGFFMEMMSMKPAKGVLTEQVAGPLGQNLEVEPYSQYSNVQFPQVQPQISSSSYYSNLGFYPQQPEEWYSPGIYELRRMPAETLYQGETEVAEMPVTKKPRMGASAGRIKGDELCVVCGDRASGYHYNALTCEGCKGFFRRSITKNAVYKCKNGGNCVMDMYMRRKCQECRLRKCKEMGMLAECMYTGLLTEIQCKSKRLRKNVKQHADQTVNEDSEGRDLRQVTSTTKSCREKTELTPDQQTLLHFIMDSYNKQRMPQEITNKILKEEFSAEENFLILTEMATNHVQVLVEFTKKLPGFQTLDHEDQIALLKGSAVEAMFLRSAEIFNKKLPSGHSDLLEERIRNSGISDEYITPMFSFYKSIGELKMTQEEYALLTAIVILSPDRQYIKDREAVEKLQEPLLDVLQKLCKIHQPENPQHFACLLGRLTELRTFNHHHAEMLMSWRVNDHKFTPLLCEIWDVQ
# UniProt P19793: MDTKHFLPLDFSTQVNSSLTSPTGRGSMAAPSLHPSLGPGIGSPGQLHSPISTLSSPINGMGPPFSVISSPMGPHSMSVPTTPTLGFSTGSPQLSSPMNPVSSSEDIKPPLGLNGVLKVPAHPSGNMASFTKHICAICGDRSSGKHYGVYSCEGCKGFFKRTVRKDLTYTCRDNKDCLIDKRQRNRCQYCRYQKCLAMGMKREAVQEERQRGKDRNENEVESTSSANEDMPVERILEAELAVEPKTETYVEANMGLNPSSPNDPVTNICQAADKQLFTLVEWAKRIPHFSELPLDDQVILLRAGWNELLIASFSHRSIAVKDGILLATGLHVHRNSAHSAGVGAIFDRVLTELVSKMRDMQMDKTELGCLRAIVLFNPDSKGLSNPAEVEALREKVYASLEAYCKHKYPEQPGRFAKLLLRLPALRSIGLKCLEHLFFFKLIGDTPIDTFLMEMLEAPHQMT
# UniProt Q12809: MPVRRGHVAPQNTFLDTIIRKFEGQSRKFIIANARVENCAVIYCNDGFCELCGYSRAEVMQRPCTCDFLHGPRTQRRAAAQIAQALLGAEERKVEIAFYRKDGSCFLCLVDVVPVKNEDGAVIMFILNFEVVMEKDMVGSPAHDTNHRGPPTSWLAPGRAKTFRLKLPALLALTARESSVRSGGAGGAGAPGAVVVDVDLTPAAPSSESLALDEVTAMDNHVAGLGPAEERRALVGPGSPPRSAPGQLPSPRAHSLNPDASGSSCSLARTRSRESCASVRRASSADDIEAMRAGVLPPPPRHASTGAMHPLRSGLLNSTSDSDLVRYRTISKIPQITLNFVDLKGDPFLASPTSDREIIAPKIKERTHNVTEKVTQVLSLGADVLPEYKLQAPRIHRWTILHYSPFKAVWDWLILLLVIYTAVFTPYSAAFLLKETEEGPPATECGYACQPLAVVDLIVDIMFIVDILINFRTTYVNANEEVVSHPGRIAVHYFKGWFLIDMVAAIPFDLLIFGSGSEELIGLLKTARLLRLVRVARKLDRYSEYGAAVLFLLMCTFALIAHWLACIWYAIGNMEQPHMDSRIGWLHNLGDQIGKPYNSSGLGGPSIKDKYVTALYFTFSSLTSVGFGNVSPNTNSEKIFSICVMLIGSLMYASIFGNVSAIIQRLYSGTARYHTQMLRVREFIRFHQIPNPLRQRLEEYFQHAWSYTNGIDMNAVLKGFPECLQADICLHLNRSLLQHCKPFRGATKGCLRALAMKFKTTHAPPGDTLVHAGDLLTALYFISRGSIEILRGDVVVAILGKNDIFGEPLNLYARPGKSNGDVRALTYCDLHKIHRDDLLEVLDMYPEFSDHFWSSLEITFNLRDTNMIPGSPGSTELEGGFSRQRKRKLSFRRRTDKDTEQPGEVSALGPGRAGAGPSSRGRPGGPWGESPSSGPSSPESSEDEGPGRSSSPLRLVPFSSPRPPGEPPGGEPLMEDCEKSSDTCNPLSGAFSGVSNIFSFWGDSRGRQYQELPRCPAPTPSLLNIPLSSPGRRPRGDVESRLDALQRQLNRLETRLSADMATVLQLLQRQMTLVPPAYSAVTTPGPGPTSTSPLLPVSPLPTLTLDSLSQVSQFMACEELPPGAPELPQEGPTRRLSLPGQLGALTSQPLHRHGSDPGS
# Key:
# [1] = Cell Viability - LYMP2-023 (AID 975);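 also: cellular ATP measured by luciferase luminescence as viability proxy; cells exposed to compound for 24 hours at 37 °C; nearly all actives have a fitted effect of over 55% in size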
# Method in brief: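 Concentration-dependent drop in intracellular ATP measures acute cytotoxicity in a human lymphoblastoid line treated for 24 hours in complete culture medium. AC50 values are taken from Hill-equation fits of qHTS data.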
# [2] = Cell Viability - LYMP2-025 (AID 976); conditions: LYMP2-025 lymphoblastoid cell viability; activity change, negative = cytotoxicity: at 92.2 µM (top of the series);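 also: potency is read from the fitted curve at half-maximal effect; cells exposed to compound for 24 h at 37 °C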
# Method in brief: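 In qHTS format, LYMP2-025 lymphoblastoid cells in complete culture medium received compound for 24 hr; ATP-based CellTiter-Glo signal gave viability, with AC50 derived by Hill equation.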
# [3] = Cell Viability - LYMP2-008 (AID 980);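 also: cells exposed to compound for 24 h at 37 °C; nearly all actives have a fitted effect of over 60% in size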
# Method in brief: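 Acute cytotoxicity is scored as concentration-dependent loss of cellular ATP in a human lymphoblastoid line after 24 hr treatment at 37 C. ATP is quantified by luciferase luminescence.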
# [4] = Cell Viability - LYMP2-014 (AID 983);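 also: potency is read from the fitted curve at half-maximal effect; cells exposed to compound for 24 h at 37 °C; nearly all actives have a fitted effect of over 50% in size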
# Method in brief: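 Decrease in intracellular ATP after 24 hr treatment at 37 C, measured by luciferase luminescence, indicated cytotoxicity. Concentration-response data were fitted with the standard Hill equation to give AC50.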
# [5] = Cell Viability - LYMP2-020 (AID 986); conditions: activity change, negative = viability loss: at 92.2 µM (top of the series);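 also: cells exposed to compound for 24 h at 37 °C; nearly all actives have a fitted effect of over 55% in size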; also: potency is read from the fitted curve at half-maximal effect
# Method in brief: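 Acute cytotoxicity in a human lymphoblastoid line is scored as a concentration-dependent fall in cellular ATP after 24 hr at 37 C in complete medium. The positive control is tetraoctylammonium bromide, and potency is given as Hill-fit AC50.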
# [6] = target: Vitamin D3 receptor (Homo sapiens) (UniProt P11473); assay: qHTS assay for small molecule agonists of vitamin D receptor signaling (AID 588543; calls by dose curve; also: potency is read from the fitted curve at half-maximal effect); conditions: HEK293T VDR-UAS-bla, beta-lactamase ratio, 16 h; activation: at 76.8 µM (top of the series)
# Method in brief: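 Measured: β-lactamase reporter activity (CCF4, 405 nm excitation, 460/530 nm emission) in HEK293T VDR-UAS-bla cells after 16 h compound exposure at 37 °C. Normalization against 50 nM 1α,25-dihydroxyvitamin D3 and DMSO; Hill-fit EC50.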
# [7] = Cell Viability - LYMP2-018 (AID 985);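 also: compound exposure lasted 24 hr at 37 °C; nearly all actives have a fitted effect of over 50% in size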
# Method in brief: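 Acute cytotoxicity is scored as a concentration-dependent drop in intracellular ATP after 24 hr exposure of the lymphoblastoid line in complete culture medium, measured by luciferase luminescence. Potency is expressed as AC50 from Hill modelling.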
# [8] = qHTS assay for cell viability of the p53RE-bla HCT-116 cell line (AID 743292); also: nearly all actives have a fitted effect of over 55% in size
# Method in brief: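 After plating at 4,000 cells per well and a 5 h rest at 37 C, HCT-116 cells carrying p53RE-bla received test chemicals in DMSO. Sixteen hours later at 37 C, CellTiter-Glo was added and luminescence recorded following 30 min at room temperature.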
# [9] = target: DNA dC->dU-editing enzyme APOBEC-3G (Homo sapiens) (UniProt Q9HC16); assay: qHTS for inhibitors of Vif-A3G interactions: Validation (AID 588379)
# Method in brief: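 HeLa cells stably expressing Vif and A3G-eYFP, 700 cells/well, incubated overnight at 37 deg C, then exposed to compound overnight at 37 deg C. Inhibition of Vif-mediated degradation read as increased yellow fluorescence (Ex 488/Em 500-530) by laser-scanning cytometry.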
# [10] = target: Estrogen receptor (Homo sapiens) (UniProt P03372); assay: qHTS assay for small molecule agonists of estrogen receptor alpha signaling (AID 588514; calls by dose curve; also: nearly all actives have a fitted effect of over 70% in size); conditions: ER-alpha-UAS-bla HEK293, beta-lactamase ratio, 18 h; at 76.8 µM (top of the series); percent of full estradiol response, vehicle zero
# Method in brief: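 Reporter-gene assay. […] controls beta-lactamase in HEK 293 GripTite cells; after 18 hrs with compound, CCF4 substrate is added for 2 hrs and fluorescence is read.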
# [11] = target: Bile acid receptor (Homo sapiens) (UniProt Q96RI1); assay: qHTS assay for small molecule antagonists of farnesoid X receptor signaling (AID 588526; calls by dose curve); conditions: HEK293T FXR-UAS-bla, beta-lactamase ratio, antagonist mode; at 76.7 µM (top of the series)
# Method in brief: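 Beta-lactamase reporter antagonist mode: HEK293T FXR-UAS-bla cells, titrated compound, CDCA stimulation, 16 h 37 C, CCF4 dye 2 h RT. Data normalized to CDCA 50 uM and DMSO; Hill-fit IC50.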
# [12] = target: Retinoic acid receptor RXR-alpha (Homo sapiens) (UniProt P19793); assay: qHTS assay for small molecule agonists of retinoid X receptor alpha signaling (AID 588544; calls by dose curve); conditions: HEK293T RXRa-UAS-bla, beta-lactamase reporter, 18 h; at 76.7 µM (top of the series)
# [13] = qHTS assay for small molecule agonists of the antioxidant response element (ARE) signaling pathway (AID 651741; active = well fitted activation curve with a large enough effect in the signal ratio; inconclusive = small, poorly fitted or top-dose-only effect, or effect the other way, or a change in a side signal; the % refers to the signal ratio); conditions: HepG2 ARE-bla reporter, beta-lactamase FRET ratio, 16 h; at 96 µM (top of the series)
# Method in brief: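 Seeding 2,000 ARE-bla HepG2 cells per well preceded a 5 h incubation at 37 C/5% CO2 and a 16 h compound exposure at 37 C. Beta-lactamase reporter activity was then quantified by fluorescence after 2 h with LiveBLAzer B/G FRET substrate.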
# [14] = qHTS assay for small molecule activators of the nuclear factor-kappa B (NF-kB) signaling pathway (AID 651749; active = well fitted activation curve with a large enough effect in the signal ratio; inconclusive = small, poorly fitted or top-dose-only effect, or a change in a side signal; the % refers to the signal ratio; also: potency is read from the fitted curve at half-maximal effect); conditions: NF-kB-bla ME-180 cells, beta-lactamase FRET ratio, 16 h; activation: stronger effect = higher value
# Method in brief: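 Stably transfected ME-180 line; NF-kB response element upstream of beta-lactamase. Treatment: compound or DMSO, 16 hr. Detection: fluorescent FRET substrate.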
# [15] = qHTS assay for cell viability of HEK293 cells (AID 743288); conditions: ATP luminescence (CellTiter-Glo), 18 h; max response: stronger effect = lower value; also: nearly all actives have a fitted effect of over 50% in size
# Method in brief: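 Luminescent ATP quantitation served as the viability read-out. Cells (parental HEK293, 2,000/well) received compounds after at least 5 h at 37 C and were exposed for 18 h before a 30 min room-temperature reagent step.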
# [16] = Cellular Toxicity (caspase-3) Jurkat (AID 655); conditions: Jurkat caspase-3 activation, luminescence, DMSO = 0%, tamoxifen = 100%; at 92.2 µM (top of the series);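 also: cells exposed to compound for 16 h at 37 °C before reading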
# Method in brief: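 qHTS in human Jurkat T-cell leukemia line: 16 hr compound treatment at 37 °C, caspase-3/7 activity measured by Caspase-Glo luminescence. AC50 derived from Hill equation.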
# [17] = Cell Viability - LYMP2-017 (AID 972); conditions: LYMP2-017 lymphoblastoid cell viability; activity change, negative = cytotoxicity: at 92.2 µM (top of the series);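 also: cells exposed to compound for 24 hours at 37 °C; nearly all actives have a fitted effect of over 55% in size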
# Method in brief: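 Steps: plate 2500 lymphoblastoid cells per well; incubate 5 hr at 37 C; add compound across a concentration series and incubate 24 hr at 37 C; add CellTiter-Glo and read luminescence after 30 min at room temperature; fit Hill curves for AC50.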
# [18] = target: Voltage-gated inwardly rectifying potassium channel KCNH2 (Homo sapiens) (UniProt Q12809); assay: qHTS Assay for Small Molecule Inhibitors of the Human hERG Channel Activity (AID 588834);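 also: top concentration of the series differs between compounds; lower thallium flux fluorescence means stronger hERG block; nearly all actives have a fitted effect of over 50% in size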
# Method in brief: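 Blockade is seen as reduced FluxOR thallium-flux fluorescence in U2OS cells expressing hERG from a BacMam construct, in Opti-MEM with 2% FCS. Concentration-response data fitted to the Hill equation for AC50.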
structure (smiles),measurement,setting,value
Brc1cc(Br)c(Oc2cc(Br)c(Br)cc2Br)cc1Br,Potency,[1],inactive
CC(C)OCC1CO1 (configuration not stated),Potency,[2],"inconclusive: 1.26 µM [cytotoxic, full curve]"
CCOCCOCC,Potency,[3],inactive
O=C(O)c1cc(N=Nc2ccc([N+](=O)[O-])cc2)ccc1O,Potency,[4],"inconclusive: 79.4 µM [cytotoxic, single point]"
same,Potency,[5],"inconclusive: 79.4 µM [cytotoxic, single point]"
same,Potency,[6],"inconclusive: 25.1 µM [side channel, rising, full curve, poor fit]"
O=c1[nH]ncc2ccccc12,Potency,[7],inactive
same,Potency,[8],inactive
c1ccc(SCCSc2ccccc2)cc1,Potency,[7],inactive
O=[N+]([O-])c1ccccc1Nc1ccccc1,Potency,[5],inactive
Nc1nc(NCCc2ccc(O)cc2)nc2nc(-c3ccco3)nn12,Potency,[9],inactive
COc1cccc(-c2oc3ccccc3c(=O)c2O)c1,Potency,[9],inactive
c1ccccc1,activation,[10],inactive: -2.62% and inactive: 0.35% and inactive: -1.73%
CN(C)c1ccc(Cc2ccc(N(C)C)cc2)cc1,"activity change, negative = inhibition",[11],inactive: -16.3%
O=C(O)CN(CC(=O)O)CC(=O)O,activation,[12],inactive: 0.995% and inactive: -15.8%
same,activation,[13],inactive: 3.6%
CCNc1ccccc1,Potency,[14],"inconclusive: 0.0045 µM [side channel, rising, full curve, poor fit]"
Cc1ccc(C(=O)O)cc1[N+](=O)[O-],max response,[15],inactive: 1.99%
C/C(Cl)=C/CCl,Potency,[8],inactive
c1ccc2c(c1)ccc1cc3c(ccc4ccccc43)cc12,caspase-3 activation,[16],inactive: -4.82%
same,Potency,[17],inactive
same,Potency,[18],inactive
